Results as given in PMC2702278.
These are yes or no findings as the source states them, for the method shown. Binding seen in cells or lysates may run through a third protein. Here binding means that the protein was enriched with, or labelled near, the bait; the list need not be complete. Values belong to the molecule of their own block, whether it stands above or below them.

Sequences of proteins named here, by UniProt entry; tags and fusion partners are left off. A change or cut given only in a name is not applied to a line headed by its entry. Residues count along the entry.
UniProt Q96B97: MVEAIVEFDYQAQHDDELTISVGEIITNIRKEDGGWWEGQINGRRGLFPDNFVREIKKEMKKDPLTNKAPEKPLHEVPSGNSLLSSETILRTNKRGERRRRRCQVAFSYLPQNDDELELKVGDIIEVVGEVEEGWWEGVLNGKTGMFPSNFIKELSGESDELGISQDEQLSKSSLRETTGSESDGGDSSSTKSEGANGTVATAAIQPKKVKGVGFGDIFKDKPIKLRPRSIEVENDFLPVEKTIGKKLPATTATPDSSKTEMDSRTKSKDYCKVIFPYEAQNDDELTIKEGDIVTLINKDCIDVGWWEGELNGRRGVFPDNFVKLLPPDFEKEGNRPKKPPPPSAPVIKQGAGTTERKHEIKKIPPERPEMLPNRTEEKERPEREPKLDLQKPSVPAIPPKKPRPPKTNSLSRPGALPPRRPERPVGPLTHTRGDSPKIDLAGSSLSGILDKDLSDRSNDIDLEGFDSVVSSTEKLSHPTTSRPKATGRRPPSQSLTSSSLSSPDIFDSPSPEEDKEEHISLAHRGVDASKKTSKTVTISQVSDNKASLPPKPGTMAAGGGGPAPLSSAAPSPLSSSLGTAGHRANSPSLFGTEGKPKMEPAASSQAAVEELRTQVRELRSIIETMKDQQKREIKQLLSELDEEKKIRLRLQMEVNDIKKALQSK
UniProt Q5VZK9: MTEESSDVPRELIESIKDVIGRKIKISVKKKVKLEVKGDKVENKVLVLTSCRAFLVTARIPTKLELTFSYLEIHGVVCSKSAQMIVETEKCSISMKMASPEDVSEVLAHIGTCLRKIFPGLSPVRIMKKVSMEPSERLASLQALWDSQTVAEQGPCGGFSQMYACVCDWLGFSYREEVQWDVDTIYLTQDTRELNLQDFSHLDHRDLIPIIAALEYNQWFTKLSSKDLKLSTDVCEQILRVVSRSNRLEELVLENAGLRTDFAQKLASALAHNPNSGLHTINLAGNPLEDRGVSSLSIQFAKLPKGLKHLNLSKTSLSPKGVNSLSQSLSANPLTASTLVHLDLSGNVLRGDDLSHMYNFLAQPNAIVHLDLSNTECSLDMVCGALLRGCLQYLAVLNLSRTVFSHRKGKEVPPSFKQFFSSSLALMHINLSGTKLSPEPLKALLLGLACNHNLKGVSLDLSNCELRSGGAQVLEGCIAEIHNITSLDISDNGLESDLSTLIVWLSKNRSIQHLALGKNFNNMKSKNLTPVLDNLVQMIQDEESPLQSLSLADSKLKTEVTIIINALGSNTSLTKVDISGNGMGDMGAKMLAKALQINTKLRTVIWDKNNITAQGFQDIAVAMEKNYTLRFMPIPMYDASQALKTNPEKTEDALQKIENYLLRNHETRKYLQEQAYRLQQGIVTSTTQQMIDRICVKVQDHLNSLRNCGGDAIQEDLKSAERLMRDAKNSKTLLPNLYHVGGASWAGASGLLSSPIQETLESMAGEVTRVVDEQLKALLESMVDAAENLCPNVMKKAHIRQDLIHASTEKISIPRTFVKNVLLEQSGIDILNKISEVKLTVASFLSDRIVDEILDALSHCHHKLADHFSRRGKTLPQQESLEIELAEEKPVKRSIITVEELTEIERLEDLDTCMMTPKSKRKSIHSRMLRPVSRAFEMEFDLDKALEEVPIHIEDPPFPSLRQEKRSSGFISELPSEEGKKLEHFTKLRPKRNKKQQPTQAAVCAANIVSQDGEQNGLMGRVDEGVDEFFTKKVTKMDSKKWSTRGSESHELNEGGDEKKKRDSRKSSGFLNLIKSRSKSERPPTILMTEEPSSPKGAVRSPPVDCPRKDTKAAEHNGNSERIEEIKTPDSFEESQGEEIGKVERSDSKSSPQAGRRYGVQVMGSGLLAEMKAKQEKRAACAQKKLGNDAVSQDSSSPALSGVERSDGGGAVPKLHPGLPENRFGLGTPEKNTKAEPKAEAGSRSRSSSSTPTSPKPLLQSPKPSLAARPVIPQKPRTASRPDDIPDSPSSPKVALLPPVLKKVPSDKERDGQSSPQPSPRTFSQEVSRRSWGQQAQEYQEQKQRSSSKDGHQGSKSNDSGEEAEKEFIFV
UniProt Q9UJX5: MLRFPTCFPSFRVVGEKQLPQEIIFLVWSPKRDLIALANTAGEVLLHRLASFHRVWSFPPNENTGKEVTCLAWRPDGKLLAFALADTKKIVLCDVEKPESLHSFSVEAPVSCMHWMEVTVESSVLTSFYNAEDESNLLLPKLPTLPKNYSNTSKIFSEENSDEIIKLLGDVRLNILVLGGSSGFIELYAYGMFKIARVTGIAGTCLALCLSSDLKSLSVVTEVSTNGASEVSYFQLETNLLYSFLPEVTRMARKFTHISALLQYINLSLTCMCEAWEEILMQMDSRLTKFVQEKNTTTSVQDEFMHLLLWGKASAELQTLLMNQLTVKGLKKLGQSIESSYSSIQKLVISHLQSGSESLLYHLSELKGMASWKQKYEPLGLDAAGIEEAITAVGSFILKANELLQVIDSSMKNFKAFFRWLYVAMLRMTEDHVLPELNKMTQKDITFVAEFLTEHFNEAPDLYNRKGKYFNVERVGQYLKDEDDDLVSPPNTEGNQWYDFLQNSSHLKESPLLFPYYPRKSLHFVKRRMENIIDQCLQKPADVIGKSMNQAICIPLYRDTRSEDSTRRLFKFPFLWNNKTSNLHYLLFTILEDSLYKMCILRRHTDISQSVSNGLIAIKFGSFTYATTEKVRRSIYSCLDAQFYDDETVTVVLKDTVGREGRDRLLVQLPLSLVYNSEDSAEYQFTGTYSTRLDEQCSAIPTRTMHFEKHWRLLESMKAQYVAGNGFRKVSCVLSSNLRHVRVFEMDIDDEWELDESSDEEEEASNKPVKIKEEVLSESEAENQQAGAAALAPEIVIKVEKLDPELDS
UniProt Q8WUM4: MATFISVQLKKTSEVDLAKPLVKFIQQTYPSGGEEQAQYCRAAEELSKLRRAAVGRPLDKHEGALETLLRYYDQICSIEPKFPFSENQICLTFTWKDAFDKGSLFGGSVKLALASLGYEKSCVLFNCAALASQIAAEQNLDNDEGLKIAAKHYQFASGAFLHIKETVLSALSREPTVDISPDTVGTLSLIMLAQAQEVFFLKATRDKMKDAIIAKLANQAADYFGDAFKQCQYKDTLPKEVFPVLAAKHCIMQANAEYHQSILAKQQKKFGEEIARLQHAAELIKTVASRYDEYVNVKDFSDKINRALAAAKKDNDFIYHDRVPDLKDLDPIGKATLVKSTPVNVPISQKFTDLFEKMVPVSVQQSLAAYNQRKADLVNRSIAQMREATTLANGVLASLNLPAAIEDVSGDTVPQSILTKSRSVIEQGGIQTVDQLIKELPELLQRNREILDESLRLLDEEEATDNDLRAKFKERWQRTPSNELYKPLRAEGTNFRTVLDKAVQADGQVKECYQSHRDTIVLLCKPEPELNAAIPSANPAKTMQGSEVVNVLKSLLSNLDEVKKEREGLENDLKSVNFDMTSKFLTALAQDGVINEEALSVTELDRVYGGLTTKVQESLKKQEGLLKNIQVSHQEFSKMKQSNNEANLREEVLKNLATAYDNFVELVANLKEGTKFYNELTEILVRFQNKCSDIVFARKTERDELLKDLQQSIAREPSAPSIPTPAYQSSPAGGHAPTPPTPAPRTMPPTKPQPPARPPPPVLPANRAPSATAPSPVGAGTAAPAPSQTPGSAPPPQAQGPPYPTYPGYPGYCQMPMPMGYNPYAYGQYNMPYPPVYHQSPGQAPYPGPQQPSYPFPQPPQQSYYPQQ
UniProt Q00536: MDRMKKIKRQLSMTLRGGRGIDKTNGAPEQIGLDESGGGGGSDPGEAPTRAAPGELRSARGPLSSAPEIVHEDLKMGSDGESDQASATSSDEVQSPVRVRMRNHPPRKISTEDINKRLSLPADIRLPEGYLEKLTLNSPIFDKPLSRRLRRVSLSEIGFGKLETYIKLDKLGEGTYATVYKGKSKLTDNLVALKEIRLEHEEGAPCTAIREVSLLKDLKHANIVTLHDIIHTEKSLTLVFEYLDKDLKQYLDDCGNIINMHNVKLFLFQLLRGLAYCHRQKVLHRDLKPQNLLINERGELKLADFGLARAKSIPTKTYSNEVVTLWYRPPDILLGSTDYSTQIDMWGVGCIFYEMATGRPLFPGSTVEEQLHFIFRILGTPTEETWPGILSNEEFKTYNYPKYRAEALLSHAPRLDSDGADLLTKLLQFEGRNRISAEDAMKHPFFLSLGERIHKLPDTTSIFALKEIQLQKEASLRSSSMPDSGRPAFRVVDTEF
UniProt P25705, residues 44-553: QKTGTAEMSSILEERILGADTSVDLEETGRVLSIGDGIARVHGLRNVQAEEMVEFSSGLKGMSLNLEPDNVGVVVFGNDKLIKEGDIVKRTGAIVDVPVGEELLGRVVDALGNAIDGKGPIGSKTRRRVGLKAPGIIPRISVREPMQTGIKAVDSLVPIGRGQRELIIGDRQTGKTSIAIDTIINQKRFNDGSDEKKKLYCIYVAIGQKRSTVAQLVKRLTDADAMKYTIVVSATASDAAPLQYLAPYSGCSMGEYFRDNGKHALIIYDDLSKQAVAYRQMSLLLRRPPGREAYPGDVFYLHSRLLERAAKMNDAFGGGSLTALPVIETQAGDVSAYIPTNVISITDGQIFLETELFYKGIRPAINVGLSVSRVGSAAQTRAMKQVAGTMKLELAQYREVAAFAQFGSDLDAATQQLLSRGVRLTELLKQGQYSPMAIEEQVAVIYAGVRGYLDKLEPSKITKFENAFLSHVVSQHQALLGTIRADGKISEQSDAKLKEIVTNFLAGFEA
UniProt O75475: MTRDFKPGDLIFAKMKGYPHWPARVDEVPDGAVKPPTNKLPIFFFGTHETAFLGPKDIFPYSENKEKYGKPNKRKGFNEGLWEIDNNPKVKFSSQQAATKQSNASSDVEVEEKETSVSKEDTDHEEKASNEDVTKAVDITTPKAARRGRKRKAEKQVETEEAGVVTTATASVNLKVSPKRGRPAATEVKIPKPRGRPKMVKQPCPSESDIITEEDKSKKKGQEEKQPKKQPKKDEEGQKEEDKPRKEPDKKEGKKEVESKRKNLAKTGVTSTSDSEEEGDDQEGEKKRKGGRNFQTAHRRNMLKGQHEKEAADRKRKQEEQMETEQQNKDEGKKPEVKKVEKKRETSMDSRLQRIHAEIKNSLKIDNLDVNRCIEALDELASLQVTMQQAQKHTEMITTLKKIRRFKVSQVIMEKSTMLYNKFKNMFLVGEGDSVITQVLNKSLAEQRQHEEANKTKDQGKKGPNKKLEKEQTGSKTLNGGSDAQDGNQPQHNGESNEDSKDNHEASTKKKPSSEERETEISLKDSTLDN

Columns and labels:
Test in all cases: affinity purification with mass spectrometry; GST-fusion SH3 domain (about 10 μg on 40 μl Glutathione Sepharose 4B) incubated 4 h at 4°C with HeLa lysate pre-cleared on GST beads; 20 mM Tris pH 7.5, 150 mM NaCl, 5 mM EDTA, 5% glycerol, 0.5% Triton X-100 (washes 0.1%); SDS-PAGE, in-gel trypsin digestion, LC-MS/MS; hits also found with GST alone removed; only the target purified
[1] = biological target: GST-fusion SH3A domain of Ruk/CIN85 (UniProt Q96B97)
[2] = biological target: GST-fusion SH3B domain of Ruk/CIN85 (UniProt Q96B97)
[3] = biological target: GST-fusion SH3C domain of Ruk/CIN85 (UniProt Q96B97)

- binding [1]: binds
- binding [2]: binds
Molecule: CARMIL (from UniProt Q5VZK9 1-1371)

- binding [3]: binds
- binding [2]: binds
Molecule: APC4 (from UniProt Q9UJX5 1-808)

- binding [2]: binds
B1: Colligin (protein, UniProt P50454 19-418)
chain: AEVKKPAAAAAPGTAEKLSPKAATLAERSAGLAFSLYQAMAKDQAVENILVSPVVVASSLGLVSLGGKATTASQAKAVLSAEQLRDEEVHAGLGELLRSLSNSTARNVTWKLGSRLYGPSSVSFADDFVRSSKQHYNCEHSKINFRDKRSALQSINEWAAQTTDGKLPEVTKDVERTDGALLVNAMFFKPHWDEKFHHKMVDNRGFMVTRSYTVGVMMMHRTGLYNYYDDEKEKLQIVEMPLAHKLSSLIILMPHHVEPLERLEKLLTKEQLKIWMGKMQKKAVAISLPKGVVEVTHDLQKHLAGLGLTEAIDKNKADLSRMSGKKDLYLASVFHATAFELDTDGNPFDQDIYGREELRSPKLFYADHPFIFLVRDTQSGSLLFIGRLVRPKGDKMRDEL

- binding [2]: binds
B2: DDX28 (protein, UniProt Q9NUL7 1-540)
chain: MALTRPVRLFSLVTRLLLAPRRGLTVRSPDEPLPVVRIPVALQRQLEQRQSRRRNLPRPVLVRPGPLLVSARRPELNQPARLTLGRWERAPLASQGWKSRRARRDHFSIERAQQEAPAVRKLSSKGSFADLGLEPRVLHALQEAAPEVVQPTTVQSSTIPSLLRGRHVVCAAETGSGKTLSYLLPLLQRLLGQPSLDSLPIPAPRGLVLVPSRELAQQVRAVAQPLGRSLGLLVRDLEGGHGMRRIRLQLSRQPSADVLVATPGALWKALKSRLISLEQLSFLVLDEADTLLDESFLELVDYILEKSHIAEGPADLEDPFNPKAQLVLVGATFPEGVGQLLNKVASPDAVTTITSSKLHCIMPHVKQTFLRLKGADKVAELVHILKHRDRAERTGPSGTVLVFCNSSSTVNWLGYILDDHKIQHLRLQGQMPALMRVGIFQSFQKSSRDILLCTDIASRGLDSTGVELVVNYDFPPTLQDYIHRAGRVGRVGSEVPGTVISFVTHPWDVSLVQKIELAARRRRSLPGLASSVKEPLPQAT

- binding [2]: binds
B3: MCM5 (protein, UniProt P33992 1-734)
chain: MSGFDDPGIFYSDSFGGDAQADEGQARKSQLQRRFKEFLRQYRVGTDRTGFTFKYRDELKRHYNLGEYWIEVEMEDLASFDEDLADYLYKQPAEHLQLLEEAAKEVADEVTRPRPSGEEVLQDIQVMLKSDASPSSIRSLKSDMMSHLVKIPGIIIAASAVRAKATRISIQCRSCRNTLTNIAMRPGLEGYALPRKCNTDQAGRPKCPLDPYFIMPDKCKCVDFQTLKLQELPDAVPHGEMPRHMQLYCDRYLCDKVVPGNRVTIMGIYSIKKFGLTTSRGRDRVGVGIRSSYIRVLGIQVDTDGSGRSFAGAVSPQEEEEFRRLAALPNVYEVISKSIAPSIFGGTDMKKAIACLLFGGSRKRLPDGLTRRGDINLLMLGDPGTAKSQLLKFVEKCSPIGVYTSGKGSSAAGLTASVMRDPSSRNFIMEGGAMVLADGGVVCIDEFDKMREDDRVAIHEAMEQQTISIAKAGITTTLNSRCSVLAAANSVFGRWDETKGEDNIDFMPTILSRFDMIFIVKDEHNEERDVMLAKHVITLHVSALTQTQAVEGEIDLAKLKKFIAYCRVKCGPRLSAEAAEKLKNRYIIMRSGARQHERDSDRRSSIPITVRQLEAIVRIAEALSKMKLQPFATEADVEEALRLFQVSTLDAALSGTLSGVEGFTSQEDQEMLSRIEKQLKRRFAIGSQVSEHSIIKDFTKQKYPEHAIHKVLQLMLRRGEIQHRMQRKVLYRLK

Further lines, the molecule ahead of its results:

Molecule: AIP1 (from UniProt Q8WUM4 1-868)
- binding [1]: binds
- binding [2]: binds

Molecule: PCTAIRE-1 (from UniProt Q00536 1-496)
- binding [3]: binds
- binding [2]: binds

Molecule: ATP synthase a (from UniProt P25705 44-553)
- binding [3]: binds
- binding [2]: binds

Molecule: LEDGF (from UniProt O75475 1-530)
- binding [3]: binds
- binding [2]: binds

B4: MAP7D3 (protein, UniProt Q8IWC1 1-876)
chain: MMADGAAAGAGGSPSLRELRARMVAAANEIAKERRKQDVVNRVATHSSNIRSTFKPVIDGSMLKNDIKQRLARERREEKRRQQDANKETQLLEKERKTKLQYEKQMEERQRKLKERKEKEEQRRIAAEEKRHQKDEAQKEKFTAILYRTLERRRLADDYQQKRWSWGGSAMANSESKTANKRSASTEKLEQGTSALIRQMPLSSAGLQNSVAKRKTDKERSSSLNRRDSNLHSSTDKEQAERKPRVTGVTNYVMQYVTVPLRKCTSDELRAVMFPMSTMKIPPQTKVEESPLEKVETPPKASVDAPPQVNVEVFCNTSMEASPKAGVGMAPEVSTDSFPVVSVDVSPVVSTYDSEMSMDASPELSIEALPKVDLETVPKVSIVASPEASLEAPPEVSLEALPEVSVEAAPEGSLEAPPKGSAEVAPKESVKGSPKESMEASPEAMVKASPKTSLEASMEASPKAKARDAPKKSEMDKQALIPIAKKRLSSYTECYKWSSSPENACGLPSPISTNRQIQKNCPPSPLPLISKQSPQTSFPYKIMPIQHTLSVQSASSTVKKKKETVSKTTNRCEALSQRHMIYEESGNKSTAGIMNAEAATKILTELRRLAREQREKEEEERQREEMQQRVIKKSKDMAKEAVGGQAEDHLKLKDGQQQNETKKKKGWLDQEDQEAPLQKGDAKIKAQEEADKRKKEHERIMLQNLQERLERKKRIEEIMKRTRKTDVNASKVTETSSHDIYEEAEADNEESDKDSLNEMFPSAILNGTGSPTKFKMPFNNAKKMTHKLVFLEDGTSQVRKEPKTYFNGDLKNFRQKSMKDTSIQEVVSRPSSKRMTSHTTKTRKADETNTTSRSSAQTKSEGFHDILPKSSDTFRQ
- binding [2]: binds

B5: C14orf43 (protein, UniProt Q6PJG2 1-1045)
chain: MNLQAQPKAQNKRKRCLFGGQEPAPKEQPPPLQPPQQSIRVKEEQYLGHEGPGGAVSTSQPVELPPPSSLALLNSVVYGPERTSAAMLSQQVASVKWPNSVMAPGRGPERGGGGGVSDSSWQQQPGQPPPHSTWNCHSLSLYSATKGSPHPGVGVPTYYNHPEALKREKAGGPQLDRYVRPMMPQKVQLEVGRPQAPLNSFHAAKKPPNQSLPLQPFQLAFGHQVNRQVFRQGPPPPNPVAAFPPQKQQQQQQPQQQQQQQQAALPQMPLFENFYSMPQQPSQQPQDFGLQPAGPLGQSHLAHHSMAPYPFPPNPDMNPELRKALLQDSAPQPALPQVQIPFPRRSRRLSKEGILPPSALDGAGTQPGQEATGNLFLHHWPLQQPPPGSLGQPHPEALGFPLELRESQLLPDGERLAPNGREREAPAMGSEEGMRAVSTGDCGQVLRGGVIQSTRRRRRASQEANLLTLAQKAVELASLQNAKDGSGSEEKRKSVLASTTKCGVEFSEPSLATKRAREDSGMVPLIIPVSVPVRTVDPTEAAQAGGLDEDGKGPEQNPAEHKPSVIVTRRRSTRIPGTDAQAQAEDMNVKLEGEPSVRKPKQRPRPEPLIIPTKAGTFIAPPVYSNITPYQSHLRSPVRLADHPSERSFELPPYTPPPILSPVREGSGLYFNAIISTSTIPAPPPITPKSAHRTLLRTNSAEVTPPVLSVMGEATPVSIEPRINVGSRFQAEIPLMRDRALAAADPHKADLVWQPWEDLESSREKQRQVEDLLTAACSSIFPGAGTNQELALHCLHESRGDILETLNKLLLKKPLRPHNHPLATYHYTGSDQWKMAERKLFNKGIAIYKKDFFLVQKLIQTKTVAQCVEFYYTYKKQVKIGRNGTLTFGDVDTSDEKSAQEEVEVDIKTSQKFPRVPLPRRESPSEERLEPKREVKEPRKEGEEEVPEIQEKEEQEEGRERSRRAAAVKATQTLQANESASDILILRSHESNAPGSAGGQASEKPREGTGKSRRALPFSEKKKKTETFSKTQNQENTFPCKKCGR
- binding [3]: binds
- binding [2]: binds
